Experimental data taken from patent US20250333410A1, “COMPOUND FOR INHIBITING OR DEGRADING BCL6 AND USE THEREOF IN PHARMACEUTICS” (XIZANG HAISCO PHARMACEUTICAL CO., LTD., priority 2022, published 2025).
The match of structure and compound is tentative.

By UniProt entry, the sequences of proteins in these tests, tags left out.
UniProt Q12809, whole entry: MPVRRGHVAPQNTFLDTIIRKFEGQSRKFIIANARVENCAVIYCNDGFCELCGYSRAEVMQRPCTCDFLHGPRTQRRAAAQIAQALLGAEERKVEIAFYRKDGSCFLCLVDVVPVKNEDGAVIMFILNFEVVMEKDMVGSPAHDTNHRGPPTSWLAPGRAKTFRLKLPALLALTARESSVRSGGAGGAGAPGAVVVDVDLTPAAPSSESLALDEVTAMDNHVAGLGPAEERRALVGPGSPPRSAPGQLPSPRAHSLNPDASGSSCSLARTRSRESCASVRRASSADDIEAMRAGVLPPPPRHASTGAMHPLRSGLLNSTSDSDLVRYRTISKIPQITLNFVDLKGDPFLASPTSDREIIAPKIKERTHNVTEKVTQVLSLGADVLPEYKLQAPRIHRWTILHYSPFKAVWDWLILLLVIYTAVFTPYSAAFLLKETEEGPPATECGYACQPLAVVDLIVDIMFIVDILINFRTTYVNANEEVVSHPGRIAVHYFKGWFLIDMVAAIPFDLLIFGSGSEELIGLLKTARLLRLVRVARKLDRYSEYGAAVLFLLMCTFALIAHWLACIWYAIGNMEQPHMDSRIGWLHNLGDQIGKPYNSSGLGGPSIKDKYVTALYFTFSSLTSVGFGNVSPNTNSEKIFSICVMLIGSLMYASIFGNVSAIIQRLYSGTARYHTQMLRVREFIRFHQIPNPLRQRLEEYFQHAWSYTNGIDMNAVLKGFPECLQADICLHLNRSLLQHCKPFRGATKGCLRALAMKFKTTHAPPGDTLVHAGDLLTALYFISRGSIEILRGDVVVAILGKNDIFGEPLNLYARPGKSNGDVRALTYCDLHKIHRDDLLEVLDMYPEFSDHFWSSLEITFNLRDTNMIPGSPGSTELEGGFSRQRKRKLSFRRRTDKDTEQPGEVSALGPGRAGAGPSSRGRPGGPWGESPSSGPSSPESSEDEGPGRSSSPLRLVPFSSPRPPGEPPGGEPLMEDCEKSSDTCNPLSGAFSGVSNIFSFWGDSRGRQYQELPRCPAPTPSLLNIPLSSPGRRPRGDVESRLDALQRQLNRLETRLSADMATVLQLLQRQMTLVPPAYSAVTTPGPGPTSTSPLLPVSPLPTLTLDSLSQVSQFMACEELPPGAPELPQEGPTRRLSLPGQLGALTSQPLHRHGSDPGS

Experiments:
Bcl6 [1] = target: T1, Bcl6 (Homo sapiens (Human), UniProt P41182); assay: Bcl-6 protein degradation experiment in Farage cells; type: cell-based; conditions: read-out: Bcl6 DC50, 24 hours
[2] = Pharmacokinetic test in mice; conditions: mice plasma, i.g. 5 mg/kg
[3] = Pharmacokinetic test in rats; conditions: i.g. 5 mg/kg; for F: rats
[4] = target: hERG potassium ion channel (Homo sapiens (Human), UniProt Q12809); assay: Test for hERG potassium ion channel (manual patch-clamp, CHO cells); conditions: read-out: IC50 of inhibitory effects on hERG potassium channel current; CHO cells stably expressing hERG, whole cell patch-clamp
Bcl6 [5] = target: T1, Bcl6; assay: Bcl-6 protein degradation experiment in OCI-LY1 cells; conditions: read-out: Bcl6 DC50, 24 hours

Row | SMILES | DC50 (Bcl6 [1]) [nM] | AUC0-t [2] [ng·h/mL] | AUC0-t ([3]; rats plasma) [ng·h/mL] | F [3] [%] | F ([3]; listed as compound 35) | IC50 [4] [nM] | DC50 (Bcl6 [5]) [nM]
1 | [2H]C([2H])([2H])NC(=O)COc1cc2cc(Nc3nc(N4CCN(CC5CCN(c6ccc(C7CCC(=O)NC7=O)cc6)CC5)CC4)ncc3Cl)ccc2n(C([2H])([2H])[2H])c1=O (stereo not shown) | < 10 |  |  |  |  |  | 
2 | CNC(=O)COc1cc2cc(Nc3nc(N4CCC(CN5CCN6c7ccc(C8CCC(=O)NC8=O)cc7CCC6C5)CC4)ncc3Cl)ccc2n(C)c1=O (single isomer, unassigned) | < 10 | >1000 | >1000 | >50 | greater than 90% | > 30000 | 
3 | CC(=O)COc1cc2cc(Nc3nc(N4CCC(N5CCN(c6ccc(NC7CCC(=O)NC7=O)cc6F)CC5)C(F)(F)C4)ncc3Cl)ccc2n(C)c1=O (single isomer, unassigned) | < 10 |  |  |  |  |  | 
4 | CC(=O)COc1cc2cc(Nc3nc(N4CCN(CC5CCN(c6ccc(C7CCC(=O)NC7=O)c(F)c6)CC5)CC4)ncc3Cl)ccc2n(C)c1=O (stereo not shown) |  | >1000 |  |  |  |  | < 100
